According to PMC8139508:
No constants are given. Whether binding was seen depends on the method and setting. Binding seen in cells or lysates may run through a third protein. A yes stands for co-enrichment or nearness to the bait. Other partners may have been found.

Protein sequences, listed by entry. Tags and fused reporters are not part of them.
UniProt P03107: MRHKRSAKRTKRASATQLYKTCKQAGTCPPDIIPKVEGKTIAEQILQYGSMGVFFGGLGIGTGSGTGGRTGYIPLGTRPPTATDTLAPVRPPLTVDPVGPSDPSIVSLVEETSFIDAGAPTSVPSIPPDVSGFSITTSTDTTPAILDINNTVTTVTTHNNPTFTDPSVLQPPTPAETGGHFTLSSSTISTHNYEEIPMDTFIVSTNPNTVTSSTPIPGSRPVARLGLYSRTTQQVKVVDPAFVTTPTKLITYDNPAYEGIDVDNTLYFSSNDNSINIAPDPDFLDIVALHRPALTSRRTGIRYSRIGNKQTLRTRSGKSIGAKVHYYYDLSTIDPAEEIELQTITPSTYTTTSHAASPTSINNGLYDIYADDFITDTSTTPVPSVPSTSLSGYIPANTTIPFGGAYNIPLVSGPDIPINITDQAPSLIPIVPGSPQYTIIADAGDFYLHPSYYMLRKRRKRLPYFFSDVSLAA
UniProt Q96Q89: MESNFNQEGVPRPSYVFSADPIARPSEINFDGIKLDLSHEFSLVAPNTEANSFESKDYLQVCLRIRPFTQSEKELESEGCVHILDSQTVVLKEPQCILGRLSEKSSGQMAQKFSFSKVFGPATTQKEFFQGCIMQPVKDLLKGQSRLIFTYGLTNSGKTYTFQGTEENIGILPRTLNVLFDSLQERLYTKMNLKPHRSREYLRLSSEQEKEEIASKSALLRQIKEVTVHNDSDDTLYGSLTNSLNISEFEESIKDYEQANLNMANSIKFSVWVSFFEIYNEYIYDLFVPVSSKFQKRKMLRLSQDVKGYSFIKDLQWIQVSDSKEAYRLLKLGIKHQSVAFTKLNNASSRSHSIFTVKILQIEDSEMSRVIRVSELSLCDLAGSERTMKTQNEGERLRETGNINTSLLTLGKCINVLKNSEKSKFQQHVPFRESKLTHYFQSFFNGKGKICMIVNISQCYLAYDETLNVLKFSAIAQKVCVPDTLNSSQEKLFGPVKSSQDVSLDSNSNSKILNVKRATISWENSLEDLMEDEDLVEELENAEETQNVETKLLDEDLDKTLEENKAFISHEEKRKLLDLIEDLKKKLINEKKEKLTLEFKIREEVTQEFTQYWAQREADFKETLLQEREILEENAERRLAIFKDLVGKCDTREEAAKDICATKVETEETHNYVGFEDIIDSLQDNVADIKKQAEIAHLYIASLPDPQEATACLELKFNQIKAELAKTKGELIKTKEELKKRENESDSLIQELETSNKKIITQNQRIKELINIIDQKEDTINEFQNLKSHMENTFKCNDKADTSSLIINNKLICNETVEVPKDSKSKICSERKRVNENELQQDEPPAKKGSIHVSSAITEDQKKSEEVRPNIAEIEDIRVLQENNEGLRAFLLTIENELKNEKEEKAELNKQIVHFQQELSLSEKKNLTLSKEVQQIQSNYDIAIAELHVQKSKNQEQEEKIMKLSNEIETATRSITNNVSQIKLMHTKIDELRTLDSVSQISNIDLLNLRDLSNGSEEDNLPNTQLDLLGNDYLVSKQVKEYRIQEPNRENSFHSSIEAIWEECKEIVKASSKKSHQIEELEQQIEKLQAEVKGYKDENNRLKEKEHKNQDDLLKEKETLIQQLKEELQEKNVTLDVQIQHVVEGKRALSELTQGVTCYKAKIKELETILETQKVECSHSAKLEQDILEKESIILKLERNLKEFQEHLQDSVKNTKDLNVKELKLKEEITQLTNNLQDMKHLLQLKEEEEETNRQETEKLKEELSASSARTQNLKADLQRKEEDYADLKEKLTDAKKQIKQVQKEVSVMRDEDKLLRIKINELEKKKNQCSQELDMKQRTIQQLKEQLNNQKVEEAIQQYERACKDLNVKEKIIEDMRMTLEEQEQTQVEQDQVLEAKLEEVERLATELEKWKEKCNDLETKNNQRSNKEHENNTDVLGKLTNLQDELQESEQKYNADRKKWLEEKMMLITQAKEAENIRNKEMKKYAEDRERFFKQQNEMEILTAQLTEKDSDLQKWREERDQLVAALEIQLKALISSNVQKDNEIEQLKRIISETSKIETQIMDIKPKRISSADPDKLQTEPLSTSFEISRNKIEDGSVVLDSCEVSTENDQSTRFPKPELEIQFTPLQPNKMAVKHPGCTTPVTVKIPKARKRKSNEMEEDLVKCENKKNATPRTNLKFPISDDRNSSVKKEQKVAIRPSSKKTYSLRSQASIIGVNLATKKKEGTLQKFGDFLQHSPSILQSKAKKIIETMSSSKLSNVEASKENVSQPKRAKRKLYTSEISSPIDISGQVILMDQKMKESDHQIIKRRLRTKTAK

Biological target: HPV16 minor capsid protein L2, wild type, 3xHA-tagged (L2-3xHA) (human papillomavirus type 16) (UniProt P03107)
Experiment: affinity purification with mass spectrometry; anti-HA immunoprecipitation from lysates of HEK293 cells expressing wild-type L2-3xHA or RTR313EEE L2-3xHA; SDS-PAGE, in-gel trypsin digest, LC-MS/MS, label-free quantification (MaxQuant); n = 3 each

kinesin KIF20B, endogenous (from UniProt Q96Q89 1-1820)
binding: binds
